Literature values in paper PMC2774495 (Cancer chemotherapy and pharmacology, 2009).

Target: human aromatase
Settings: read-out: IC50 for inhibition of human aromatase; cited from earlier work

Which IC50 does the source give for `CC(C)(C#N)c1cc(Cn2cncn2)cc(C(C)(C)C#N)c1` [anastrozole] here?
The IC50 was about 15 nM.
